Data taken from patent publication US9408908B2, “Combination adjuvant formulation” (University of Saskatchewan, priority 2008, dated 2016).
Not every detail of the peptide structures is certain; ends, links or a residue may be inferred. No end group written: not given here.

Assays:
S. aureus = experiment: Protection against S. aureus infection in mice; type: in vivo, BALB/c mice; settings: 8 mg/kg i.p. 4 h prior to infection; bacterial counts in peritoneal lavage at 24 h
human PBMC = experiment: Chemokine induction by host defense peptides in human PBMC (ELISA); type: cell-based; settings: for Chemokine Induction MCP-1: 24 hour, ELISA
[1] = peptide concentration 100 μg/ml

| Substance | protection in animal challenges against S. aureus (S. aureus) | Chemokine Induction Gro-α (human PBMC; peptide concentration 20 μg/ml) | Chemokine Induction MCP-3 (human PBMC; peptide concentration 20 μg/ml) | Chemokine Induction MCP-1 (human PBMC; peptide concentration 20 μg/ml) | Chemokine Induction Gro-α (human PBMC; [1]) | Chemokine Induction MCP-3 (human PBMC; [1]) | Chemokine Induction MCP-1 (human PBMC; [1]) |
| --- | --- | --- | --- | --- | --- | --- | --- |
| VQRWLIVWRIRK [Peptide 1002] | offered protection | – | – | – | – | – | – |
| VRLIVAVRIWRR-NH2 [Peptide 1018] | offered protection | 826 pg/mL | 156 pg/mL | 8774 pg/mL | 2692 pg/mL | 604 pg/mL | 13041 pg/mL |
